For 1 molecule, binding results are on record in publication doi:10.1101/2023.08.05.550684.

The target in the assay is T1, Saccharomyces cerevisiae PCS60 (ScPCS60) (S. cerevisiae) (UniProt P38137).
T1 sequence: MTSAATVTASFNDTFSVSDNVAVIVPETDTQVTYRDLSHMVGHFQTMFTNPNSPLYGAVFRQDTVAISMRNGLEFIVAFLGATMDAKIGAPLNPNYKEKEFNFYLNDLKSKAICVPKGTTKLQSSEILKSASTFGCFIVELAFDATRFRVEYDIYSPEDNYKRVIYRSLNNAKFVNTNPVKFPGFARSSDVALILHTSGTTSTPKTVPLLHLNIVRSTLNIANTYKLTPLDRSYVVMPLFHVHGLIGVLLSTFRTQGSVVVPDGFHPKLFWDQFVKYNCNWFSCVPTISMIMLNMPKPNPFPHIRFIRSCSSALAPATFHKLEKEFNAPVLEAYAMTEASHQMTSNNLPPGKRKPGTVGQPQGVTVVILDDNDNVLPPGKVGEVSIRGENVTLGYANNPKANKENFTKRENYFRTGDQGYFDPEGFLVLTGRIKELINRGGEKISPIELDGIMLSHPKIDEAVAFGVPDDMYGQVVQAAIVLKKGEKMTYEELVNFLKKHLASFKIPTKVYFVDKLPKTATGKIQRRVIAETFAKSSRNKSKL
The experiment in a line: two-hybrid.

Results are given in words; binding and its absence hold for the method and conditions named. Some entries that bind do so weakly or less than the wild type. Sequences can lack the tags named with a protein.

B1: Saccharomyces cerevisiae PEX5 (ScPEX5) (protein, UniProt P35056 1-612)
chain: MDVGSCSVGNNPLAQLHKHTQQNKSLQFNQKNNGRLNESPLQGTNKPGISEAFISNVNAISQENMANMQRFINGEPLIDDKRRMEIGPSSGRLPPFSNVHSLQTSANPTQIKGVNDISHWSQEFQGSNSIQNRNADTGNSEKAWQRGSTTASSRFQYPNTMMNNYAYASMNSLSGSRLQSPAFMNQQQSGRSKEGVNEQEQQPWTDQFEKLEKEVSENLDINDEIEKEENVSEVEQNKPETVEKEEGVYGDQYQSDFQEVWDSIHKDAEEVLPSELVNDDLNLGEDYLKYLGGRVNGNIEYAFQSNNEYFNNPNAYKIGCLLMENGAKLSEAALAFEAAVKEKPDHVDAWLRLGLVQTQNEKELNGISALEECLKLDPKNLEAMKTLAISYINEGYDMSAFTMLDKWAETKYPEIWSRIKQQDDKFQKEKGFTHIDMNAHITKQFLQLANNLSTIDPEIQLCLGLLFYTKDDFDKTIDCFESALRVNPNDELMWNRLGASLANSNRSEEAIQAYHRALQLKPSFVRARYNLAVSSMNIGCFKEAAGYLLSVLSMHEVNTNNKKGDVGSLLNTYNDTVIETLKRVFIAMNRDDLLQEVKPGMDLKRFKGEFSF
Take B1: the binding result is “binds”.
